Test results from paper PMC11232239.
Results are given in words; binding and its absence hold for the method and conditions named. Binding seen in cells or lysates may run through a third protein. Binding calls can cover weak binding; strength is not graded here.

The chains behind the UniProt entries cited, without tags or fusion partners. Where a name states a change or a piece, a line headed by the entry shows the natural chain unless it says otherwise.
UniProt Q01813: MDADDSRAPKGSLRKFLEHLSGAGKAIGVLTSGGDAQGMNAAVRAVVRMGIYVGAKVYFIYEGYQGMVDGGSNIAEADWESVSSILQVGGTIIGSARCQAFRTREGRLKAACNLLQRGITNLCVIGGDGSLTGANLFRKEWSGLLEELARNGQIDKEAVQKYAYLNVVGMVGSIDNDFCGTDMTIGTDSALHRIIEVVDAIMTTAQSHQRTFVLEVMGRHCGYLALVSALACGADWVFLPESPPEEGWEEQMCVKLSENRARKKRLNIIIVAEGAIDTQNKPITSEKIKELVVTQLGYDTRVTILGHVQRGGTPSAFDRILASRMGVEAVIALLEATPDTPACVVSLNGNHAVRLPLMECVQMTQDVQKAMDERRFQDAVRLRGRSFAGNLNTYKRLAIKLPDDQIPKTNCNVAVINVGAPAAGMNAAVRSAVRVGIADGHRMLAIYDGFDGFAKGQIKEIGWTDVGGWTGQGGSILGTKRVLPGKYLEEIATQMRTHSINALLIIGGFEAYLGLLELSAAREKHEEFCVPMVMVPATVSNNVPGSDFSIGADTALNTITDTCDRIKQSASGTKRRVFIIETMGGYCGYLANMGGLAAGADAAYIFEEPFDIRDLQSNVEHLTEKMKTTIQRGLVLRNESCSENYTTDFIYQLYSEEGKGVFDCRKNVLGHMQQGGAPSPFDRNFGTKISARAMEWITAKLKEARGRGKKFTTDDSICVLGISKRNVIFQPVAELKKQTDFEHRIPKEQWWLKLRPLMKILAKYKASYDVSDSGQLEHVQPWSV
UniProt P28482: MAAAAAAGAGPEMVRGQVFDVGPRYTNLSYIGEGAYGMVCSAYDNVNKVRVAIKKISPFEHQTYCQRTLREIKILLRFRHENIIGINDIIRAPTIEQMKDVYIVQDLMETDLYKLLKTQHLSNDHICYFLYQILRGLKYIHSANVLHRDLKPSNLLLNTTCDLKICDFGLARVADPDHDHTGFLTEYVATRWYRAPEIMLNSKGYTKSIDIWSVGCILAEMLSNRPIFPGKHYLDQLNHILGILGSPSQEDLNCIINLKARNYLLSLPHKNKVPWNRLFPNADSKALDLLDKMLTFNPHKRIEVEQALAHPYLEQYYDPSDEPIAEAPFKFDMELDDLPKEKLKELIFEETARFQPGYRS

Target: PFKP mutant L596A (human) (UniProt Q01813)
Test: co-IP; TU177 cells transfected with FLAG-PFKP (wild type or mutants) and HA-ERK2 plasmids; IP for FLAG and HA, Western blotting

binding: binds
Substance: HA-tagged ERK2 (from UniProt P28482 1-360)
